For series [1], the system named is DegU~P (DegU phosphorylated by DegS + ATP) + SwrA. Kind of series: EMSA. Particulars: 50 mM Tris-HCl pH 7.6, 10 mM MgCl2, 1 mM DTT, 25 mM KCl, 0.1 mg/ml BSA, 0.1 mM ATP, 0.1 ug sonicated salmon sperm DNA, recombinant protein, probe letters rebuilt from the primers and the genome.
In series [2] the target is DegU~P (DegU phosphorylated by DegS + ATP) (Bacillus subtilis) (UniProt P13800). Kind of series: EMSA. Particulars: 50 mM Tris-HCl pH 7.6, 10 mM MgCl2, 1 mM DTT, 25 mM KCl, 0.1 mg/ml BSA, 0.1 mM ATP, 0.1 ug sonicated salmon sperm DNA, recombinant protein, protein details: pET16b (His-tag implied), probe letters rebuilt from the primers and the genome.
Series [3] has as its target T1, GST-SwrA (Bacillus subtilis) (UniProt O32266).
T1 sequence (looked up, limits assumed): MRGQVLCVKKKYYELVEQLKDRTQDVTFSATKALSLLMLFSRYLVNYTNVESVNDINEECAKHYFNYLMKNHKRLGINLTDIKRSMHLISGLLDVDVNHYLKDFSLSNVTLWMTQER
Briefly: EMSA. The following applies: GST-SwrA alone (not shown); 50 mM Tris-HCl pH 7.6, 10 mM MgCl2, 1 mM DTT, 25 mM KCl, 0.1 mg/ml BSA, 0.1 mM ATP, 0.1 ug sonicated salmon sperm DNA; recombinant protein; protein details: GST (N-terminal, pGEX-6P); label: 5'-32P; probe letters rebuilt from the primers and the genome. For orientation: A gel shift assay detects complexes by their altered migration in electrophoresis.

Chains of the proteins cited; added tags and fusions are not shown. Lines headed by an entry give the natural chain unless they say otherwise; changes in a name come on top.
UniProt O32266: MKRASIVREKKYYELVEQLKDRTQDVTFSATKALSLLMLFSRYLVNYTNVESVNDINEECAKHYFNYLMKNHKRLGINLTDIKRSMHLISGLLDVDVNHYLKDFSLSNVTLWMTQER

The test system of series [4] is DegU~P (DegU phosphorylated by DegS + ATP) + GST-SwrA. Briefly: EMSA. Particulars: 0.1 uM DegU, 0.1 uM DegS, 1.5 uM GST-SwrA, ATP, slower SS* complex; 50 mM Tris-HCl pH 7.6, 10 mM MgCl2, 1 mM DTT, 25 mM KCl, 0.1 mg/ml BSA, 0.1 mM ATP, 0.1 ug sonicated salmon sperm DNA; recombinant protein; protein details: pET16b (His-tag implied),GST (N-terminal, pGEX-6P); label: 5'-32P; probe letters rebuilt from the primers and the genome.

The target in series [5] is DegU~P (phosphorylated by DegS200(Hy)) (Bacillus subtilis) (UniProt P13800). Kind of series: EMSA. Particulars: phosphorylated by DegS200(Hy), ATP, same as wild-type DegS, FAM or 32P probe not stated for Fig 4; 50 mM Tris-HCl pH 7.6, 10 mM MgCl2, 1 mM DTT, 25 mM KCl, 0.1 mg/ml BSA, 0.1 mM ATP, 0.1 ug sonicated salmon sperm DNA; recombinant protein; protein details: pET16b (His-tag implied); label: 6-FAM; probe letters rebuilt from the primers and the genome.

The target in a further series is T2, SwrA (Bacillus subtilis) (UniProt O32266).
T2 sequence (looked up, limits assumed): T1 sequence (looked up, limits assumed)
Briefly: EMSA. Particulars: 1 uM SwrA, alone or with DegS; 50 mM Tris-HCl pH 7.6, 10 mM MgCl2, 1 mM DTT, 25 mM KCl, 0.1 mg/ml BSA, 0.1 mM ATP, 0.1 ug sonicated salmon sperm DNA; recombinant protein; protein details: from pGEX-6P GST fusion, untagged; label: 6-FAM; probe letters rebuilt from the primers and the genome.

The test system of series [6] is DegU~P (phosphorylated by DegS200(Hy)) + SwrA. Briefly: EMSA. The following applies: phosphorylated by DegS200(Hy), ATP, SS complex, FAM or 32P probe not stated for Fig 4; 50 mM Tris-HCl pH 7.6, 10 mM MgCl2, 1 mM DTT, 25 mM KCl, 0.1 mg/ml BSA, 0.1 mM ATP, 0.1 ug sonicated salmon sperm DNA; recombinant protein; label: 6-FAM; probe letters rebuilt from the primers and the genome.

The target of series [7] is T3, DegU (unphosphorylated) (Bacillus subtilis) (UniProt P13800).
T3 sequence (looked up, limits assumed): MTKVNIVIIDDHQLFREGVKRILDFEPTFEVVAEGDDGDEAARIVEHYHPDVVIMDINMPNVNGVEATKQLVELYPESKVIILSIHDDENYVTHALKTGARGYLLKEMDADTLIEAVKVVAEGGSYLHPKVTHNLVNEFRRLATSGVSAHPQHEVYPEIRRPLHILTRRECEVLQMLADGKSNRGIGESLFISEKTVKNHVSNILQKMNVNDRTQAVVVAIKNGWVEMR
Kind of series: EMSA. Particulars: lower affinity than DegU~P, ATP required for the interaction (data not shown); 50 mM Tris-HCl pH 7.6, 10 mM MgCl2, 1 mM DTT, 25 mM KCl, 0.1 mg/ml BSA, 0.1 mM ATP, 0.1 ug sonicated salmon sperm DNA; recombinant protein; protein details: pET16b (His-tag implied); label: 6-FAM; probe letters rebuilt from the primers and the genome.

Series [8] concerns DegU~P (DegU phosphorylated by DegS + ATP) + SwrA. Briefly: competition with a labelled probe. The following applies: 20 ng unlabeled DNA, did not compete (SS complex); 50 mM Tris-HCl pH 7.6, 10 mM MgCl2, 1 mM DTT, 25 mM KCl, 0.1 mg/ml BSA, 0.1 mM ATP, 0.1 ug sonicated salmon sperm DNA; recombinant protein; probe letters rebuilt from the primers and the genome.
For series [9], the target named is DegU~P (DegU phosphorylated by DegS + ATP) (Bacillus subtilis) (UniProt P13800). Briefly: competition with a labelled probe. The following applies: 20 ng unlabeled DNA, did not compete (S complex); 50 mM Tris-HCl pH 7.6, 10 mM MgCl2, 1 mM DTT, 25 mM KCl, 0.1 mg/ml BSA, 0.1 mM ATP, 0.1 ug sonicated salmon sperm DNA; recombinant protein; protein details: pET16b (His-tag implied); probe letters rebuilt from the primers and the genome.

Experimental findings from publication PMC3874003 are described below.

The exact form of at least one protein or probe is not confirmed. For some of these results: Negatives hold for the conditions tested. For some of these results: Protein sequences can lack the tags named with them. For some of these results: A weaker result is weaker than the reference pair of the same experiment. For some of these results: At least one verdict was read from the data and is not stated in words by the source.

With “ACCCTCAATATCCTTGTCGAGAATTGTAAAACTATATGCTTATTGTAAGAAATAACAGGCATAAAGTCTATGAAGTTCGTGTAAAAAAATGTCCTCACAATTATCTATTTTGCAACTAGGTATAAAGTCCTAGATTGTTAGAACTACATTTCTCG (double strand) [K probe, 156 bp]”, the binding result in [1] (with DegS and ATP, SS complex, label: 6-FAM (primer 8601)) was “binds”; in series [2] (with DegS and ATP, S complex, label: 6-FAM (primer 8601)) it was “binds”.
Turning to “AGTTCTAACAATCTAGGACTTTATACCTAGTTGCAAAATAGATAATTGTGAGGACATTTTTTTACACGAACTTCATAGACTTTATGCCTGTTATTTCTTACAATAAGCATATAGTTTTACAATTCTCGACAAGGATATTGAGGGTGAAAAAAACTGAAATGGAGGTAAGTGGATTTGAGCTTATTTTCTGGAACGATACAAAATCTTGAAAATGCCTTGAGCAGAGCGGATATTAAGCAAAAAGTCATAACTAATAATATCGCCAATATAGATACACCGAACTATAACCATGGGC (double strand) [PA(fla/che) probe, 32P, 285 bp]”, the binding result in series [3] is listed as “no binding”; in [1] (0.1 uM DegU, 0.1 uM DegS, 1.5 uM SwrA, ATP, SwrA increases DNA binding at limiting DegU and DegS (Fig S2), label: 5'-32P), “binds”; in series [4], “binds”.
“GCCCATGGTTATAGTTCGGTGTATCTATATTGGCGATATTATTAGTTATGACTTTTTGCTTAATATCCGCTCTGCTCAAGGCATTTTCAAGATTTTGTATCGTTCCAGAAAATAAGCTCAAATCCACTTACCTCCATTTCAGTTTTTTTCACCCTCAATATCCTTGTCGAGAATTGTAAAACTATATGCTTATTGTAAGAAATAACAGGCATAAAGTCTATGAAGTTCGTGTAAAAAAATGTCCTCACAATTATCTATTTTGCAACTAGGTATAAAGTCCTAGATTGTTAGAACTACATTTCTCG (double strand) [PA(fla/che) probe, FAM, 299 bp]”: the binding result in series [5] is on record as “binds”; in series [1] (0.35 uM DegU, 0.4 uM DegS, 1 uM SwrA, ATP, supershifted SS complex, label: 6-FAM) it was “binds”; with SwrA (Bacillus subtilis), “no binding”; in series [2] (0.35 uM DegU, 0.4 uM DegS, 10 mM Mg2+, label: 6-FAM), “binds”; in [6], “binds”; in series [7], “binds more weakly”.
Take “GGAGGATCCCGCTTCCTTCAGGTCGAACCCTTTACCGTTATCTTTTATCATTAAAATCACAAAATCCTTTGTGATCTCAACTTTGACTGTAATTTCTTCAGATTCAGAATGCTTTAGCGCATTAGACACAGCTTCCTGTGCGAGCCTGAAGAGCGCAACCTCAAACTGAGGCGCTAGCCTCTGATCCTCTGTTTCTCCAATGCACTGAAAATGTATTTTGACCTTCCCGTTATATTCCTCGGTTGTATATAGATATTTTCTTAAAGTTGGAATCAGGCC (double strand) [non-specific competitor (internal degS fragment)]”: the binding result in [8] and in series [9] was “no binding” each time.
